Measured values taken from the supplement of paper PMC12823440, “Inhibitors supercharge kinase turnover through native proteolytic circuits” (Nature, 2025).
The list shows a part of the results. Hit calls seldom repeat between salt and free forms of one compound.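 Kinases, fused to nanoluciferase, were expressed in K562 cells; luminescence was measured every 4 h from 2 to 18 h as percent of control (DMSO = 100%, positive control = 0%). A time point is decreased if signal falls significantly (2 sigma). Hits were called by the authors by a rule that is not shown; the count of time points alone does not decide it.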

The chains behind the UniProt entries cited, without tags or fusion partners. Where a name states a change or a piece, a line headed by the entry shows the natural chain unless it says otherwise.
UniProt P42356, whole entry, looked up: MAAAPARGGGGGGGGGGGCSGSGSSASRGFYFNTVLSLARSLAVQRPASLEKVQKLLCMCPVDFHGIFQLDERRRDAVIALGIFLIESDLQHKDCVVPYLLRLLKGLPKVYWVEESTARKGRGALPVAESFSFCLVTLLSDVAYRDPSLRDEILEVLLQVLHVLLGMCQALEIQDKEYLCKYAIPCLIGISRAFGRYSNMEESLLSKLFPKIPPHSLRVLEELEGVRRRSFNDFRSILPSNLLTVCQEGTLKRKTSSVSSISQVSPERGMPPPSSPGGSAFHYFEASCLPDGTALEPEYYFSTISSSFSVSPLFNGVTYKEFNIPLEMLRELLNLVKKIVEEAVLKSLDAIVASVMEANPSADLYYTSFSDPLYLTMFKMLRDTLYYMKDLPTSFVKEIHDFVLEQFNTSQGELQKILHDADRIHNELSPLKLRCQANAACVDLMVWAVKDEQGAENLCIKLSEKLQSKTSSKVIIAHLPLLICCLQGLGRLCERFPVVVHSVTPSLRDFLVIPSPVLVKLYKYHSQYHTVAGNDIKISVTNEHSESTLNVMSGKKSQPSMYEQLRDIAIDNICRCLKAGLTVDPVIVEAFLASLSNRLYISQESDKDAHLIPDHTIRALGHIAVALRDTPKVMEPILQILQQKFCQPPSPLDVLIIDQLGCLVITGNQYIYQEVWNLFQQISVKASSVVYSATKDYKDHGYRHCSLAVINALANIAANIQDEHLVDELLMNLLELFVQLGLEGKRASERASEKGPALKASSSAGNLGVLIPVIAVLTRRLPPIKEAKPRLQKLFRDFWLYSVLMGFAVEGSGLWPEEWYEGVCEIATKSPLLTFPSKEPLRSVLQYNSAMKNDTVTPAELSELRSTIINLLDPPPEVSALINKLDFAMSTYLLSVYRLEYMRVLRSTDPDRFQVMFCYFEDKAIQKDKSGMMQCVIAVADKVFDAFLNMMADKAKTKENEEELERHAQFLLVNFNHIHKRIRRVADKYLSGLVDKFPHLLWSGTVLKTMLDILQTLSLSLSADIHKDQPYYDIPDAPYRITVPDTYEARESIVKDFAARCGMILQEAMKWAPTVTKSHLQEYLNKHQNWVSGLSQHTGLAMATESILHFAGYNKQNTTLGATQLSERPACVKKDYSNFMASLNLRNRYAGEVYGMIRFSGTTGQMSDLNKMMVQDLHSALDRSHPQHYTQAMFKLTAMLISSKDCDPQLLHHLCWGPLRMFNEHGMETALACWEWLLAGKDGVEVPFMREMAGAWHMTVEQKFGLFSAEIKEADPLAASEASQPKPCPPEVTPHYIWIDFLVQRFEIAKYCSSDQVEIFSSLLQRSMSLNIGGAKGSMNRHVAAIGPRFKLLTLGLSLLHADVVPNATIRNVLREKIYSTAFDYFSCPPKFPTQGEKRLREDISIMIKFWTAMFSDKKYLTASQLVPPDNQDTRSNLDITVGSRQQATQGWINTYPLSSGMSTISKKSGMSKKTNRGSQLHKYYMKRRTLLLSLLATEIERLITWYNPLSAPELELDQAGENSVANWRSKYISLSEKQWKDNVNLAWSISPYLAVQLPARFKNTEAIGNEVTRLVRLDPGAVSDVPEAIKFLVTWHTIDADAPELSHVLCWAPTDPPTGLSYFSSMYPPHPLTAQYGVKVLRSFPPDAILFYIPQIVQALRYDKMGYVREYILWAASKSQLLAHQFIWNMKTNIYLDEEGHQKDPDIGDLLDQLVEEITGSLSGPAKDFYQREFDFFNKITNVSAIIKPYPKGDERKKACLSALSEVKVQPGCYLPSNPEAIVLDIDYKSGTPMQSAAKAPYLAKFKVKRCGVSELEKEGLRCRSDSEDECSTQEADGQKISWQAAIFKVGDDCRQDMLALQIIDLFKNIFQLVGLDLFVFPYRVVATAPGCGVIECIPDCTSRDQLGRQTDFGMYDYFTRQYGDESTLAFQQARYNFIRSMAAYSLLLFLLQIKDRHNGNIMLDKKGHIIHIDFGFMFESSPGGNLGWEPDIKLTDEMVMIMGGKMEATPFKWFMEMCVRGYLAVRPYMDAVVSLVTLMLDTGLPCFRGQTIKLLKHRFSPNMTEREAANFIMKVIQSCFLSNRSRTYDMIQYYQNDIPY
UniProt Q13546: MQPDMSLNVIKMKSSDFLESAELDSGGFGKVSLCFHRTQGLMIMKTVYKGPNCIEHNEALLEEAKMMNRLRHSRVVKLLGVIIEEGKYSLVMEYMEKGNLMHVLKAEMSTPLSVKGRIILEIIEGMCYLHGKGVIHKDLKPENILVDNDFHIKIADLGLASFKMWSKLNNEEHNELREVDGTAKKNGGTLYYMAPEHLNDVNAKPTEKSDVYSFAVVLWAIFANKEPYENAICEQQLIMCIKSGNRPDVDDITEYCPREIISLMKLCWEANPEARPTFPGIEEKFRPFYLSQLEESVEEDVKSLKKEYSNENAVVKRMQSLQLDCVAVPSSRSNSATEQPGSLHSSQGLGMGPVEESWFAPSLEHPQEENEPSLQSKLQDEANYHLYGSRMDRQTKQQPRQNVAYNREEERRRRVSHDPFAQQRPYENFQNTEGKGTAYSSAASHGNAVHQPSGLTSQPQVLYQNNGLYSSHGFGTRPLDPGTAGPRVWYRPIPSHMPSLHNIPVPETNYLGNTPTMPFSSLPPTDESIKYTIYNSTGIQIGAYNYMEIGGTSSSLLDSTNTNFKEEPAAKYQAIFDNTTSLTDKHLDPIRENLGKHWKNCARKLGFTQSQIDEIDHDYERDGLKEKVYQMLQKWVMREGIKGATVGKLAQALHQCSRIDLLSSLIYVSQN
UniProt P53667: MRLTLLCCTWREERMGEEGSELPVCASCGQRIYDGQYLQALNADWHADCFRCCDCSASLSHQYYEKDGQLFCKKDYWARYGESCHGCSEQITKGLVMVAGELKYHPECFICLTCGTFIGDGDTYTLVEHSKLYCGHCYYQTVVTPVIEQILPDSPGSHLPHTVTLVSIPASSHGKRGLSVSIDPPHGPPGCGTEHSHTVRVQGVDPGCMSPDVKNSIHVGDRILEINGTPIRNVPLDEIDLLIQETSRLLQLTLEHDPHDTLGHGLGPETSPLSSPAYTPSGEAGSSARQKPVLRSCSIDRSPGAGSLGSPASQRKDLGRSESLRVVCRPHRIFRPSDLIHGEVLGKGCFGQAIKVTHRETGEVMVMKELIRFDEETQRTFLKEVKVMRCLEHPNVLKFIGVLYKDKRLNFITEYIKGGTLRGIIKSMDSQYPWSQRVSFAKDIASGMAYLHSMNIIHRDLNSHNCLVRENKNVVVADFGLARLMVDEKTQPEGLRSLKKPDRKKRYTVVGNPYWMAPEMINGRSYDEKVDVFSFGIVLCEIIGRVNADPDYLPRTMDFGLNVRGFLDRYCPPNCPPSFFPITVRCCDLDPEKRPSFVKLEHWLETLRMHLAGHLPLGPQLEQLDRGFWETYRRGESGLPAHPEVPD
UniProt P06241, whole entry, looked up: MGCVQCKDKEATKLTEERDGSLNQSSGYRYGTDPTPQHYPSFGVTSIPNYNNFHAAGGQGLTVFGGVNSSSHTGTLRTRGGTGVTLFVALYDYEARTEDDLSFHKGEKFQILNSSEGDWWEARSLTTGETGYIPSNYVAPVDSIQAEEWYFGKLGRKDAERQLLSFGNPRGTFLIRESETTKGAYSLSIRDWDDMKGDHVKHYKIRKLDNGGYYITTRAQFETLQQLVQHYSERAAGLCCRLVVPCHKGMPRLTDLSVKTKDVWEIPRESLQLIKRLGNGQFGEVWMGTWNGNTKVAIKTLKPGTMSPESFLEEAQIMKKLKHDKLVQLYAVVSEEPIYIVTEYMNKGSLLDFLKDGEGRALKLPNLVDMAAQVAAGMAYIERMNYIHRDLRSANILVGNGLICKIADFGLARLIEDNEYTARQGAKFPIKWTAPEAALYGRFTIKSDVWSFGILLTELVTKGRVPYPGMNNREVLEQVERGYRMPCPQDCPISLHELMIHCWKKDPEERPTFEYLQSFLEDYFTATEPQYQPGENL
UniProt P48729: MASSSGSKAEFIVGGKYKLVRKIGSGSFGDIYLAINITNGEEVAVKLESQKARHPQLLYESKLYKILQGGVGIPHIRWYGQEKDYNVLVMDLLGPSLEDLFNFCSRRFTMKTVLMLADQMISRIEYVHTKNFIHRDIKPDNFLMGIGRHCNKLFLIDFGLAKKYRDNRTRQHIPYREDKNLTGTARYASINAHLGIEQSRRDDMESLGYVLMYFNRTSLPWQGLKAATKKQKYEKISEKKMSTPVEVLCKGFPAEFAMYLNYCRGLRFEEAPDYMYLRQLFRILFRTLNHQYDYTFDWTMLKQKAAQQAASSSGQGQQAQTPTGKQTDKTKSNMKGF
UniProt P10398: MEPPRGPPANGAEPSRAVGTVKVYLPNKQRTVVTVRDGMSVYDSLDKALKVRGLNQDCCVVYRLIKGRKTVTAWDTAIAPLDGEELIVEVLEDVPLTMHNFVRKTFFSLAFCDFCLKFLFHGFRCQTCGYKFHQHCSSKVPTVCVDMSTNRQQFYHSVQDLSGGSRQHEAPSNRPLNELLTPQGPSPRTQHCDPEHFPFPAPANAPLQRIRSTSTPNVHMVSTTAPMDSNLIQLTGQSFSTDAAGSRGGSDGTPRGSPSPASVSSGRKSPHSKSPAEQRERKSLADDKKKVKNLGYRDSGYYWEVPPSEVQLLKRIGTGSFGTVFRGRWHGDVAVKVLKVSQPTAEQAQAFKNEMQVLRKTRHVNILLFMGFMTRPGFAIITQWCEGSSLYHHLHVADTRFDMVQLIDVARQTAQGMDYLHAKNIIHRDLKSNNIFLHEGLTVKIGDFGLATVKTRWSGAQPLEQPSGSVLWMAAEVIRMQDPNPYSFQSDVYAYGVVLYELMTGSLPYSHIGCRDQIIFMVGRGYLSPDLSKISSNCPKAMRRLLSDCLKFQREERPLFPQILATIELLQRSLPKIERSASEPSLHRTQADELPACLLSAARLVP
UniProt P06239: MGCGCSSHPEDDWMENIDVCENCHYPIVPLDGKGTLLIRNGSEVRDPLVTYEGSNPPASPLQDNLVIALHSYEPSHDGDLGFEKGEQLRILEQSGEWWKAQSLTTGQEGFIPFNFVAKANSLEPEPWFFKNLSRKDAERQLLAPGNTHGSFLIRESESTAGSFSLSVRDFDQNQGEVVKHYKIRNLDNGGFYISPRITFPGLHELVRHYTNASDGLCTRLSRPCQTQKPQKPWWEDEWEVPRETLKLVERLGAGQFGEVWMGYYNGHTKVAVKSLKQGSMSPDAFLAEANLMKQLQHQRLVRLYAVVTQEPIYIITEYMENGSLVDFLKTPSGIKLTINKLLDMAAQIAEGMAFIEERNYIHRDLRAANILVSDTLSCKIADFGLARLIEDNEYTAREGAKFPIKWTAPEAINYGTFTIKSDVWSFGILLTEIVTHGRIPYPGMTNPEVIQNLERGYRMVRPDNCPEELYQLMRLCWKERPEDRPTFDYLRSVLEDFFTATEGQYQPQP
UniProt P07333, whole entry: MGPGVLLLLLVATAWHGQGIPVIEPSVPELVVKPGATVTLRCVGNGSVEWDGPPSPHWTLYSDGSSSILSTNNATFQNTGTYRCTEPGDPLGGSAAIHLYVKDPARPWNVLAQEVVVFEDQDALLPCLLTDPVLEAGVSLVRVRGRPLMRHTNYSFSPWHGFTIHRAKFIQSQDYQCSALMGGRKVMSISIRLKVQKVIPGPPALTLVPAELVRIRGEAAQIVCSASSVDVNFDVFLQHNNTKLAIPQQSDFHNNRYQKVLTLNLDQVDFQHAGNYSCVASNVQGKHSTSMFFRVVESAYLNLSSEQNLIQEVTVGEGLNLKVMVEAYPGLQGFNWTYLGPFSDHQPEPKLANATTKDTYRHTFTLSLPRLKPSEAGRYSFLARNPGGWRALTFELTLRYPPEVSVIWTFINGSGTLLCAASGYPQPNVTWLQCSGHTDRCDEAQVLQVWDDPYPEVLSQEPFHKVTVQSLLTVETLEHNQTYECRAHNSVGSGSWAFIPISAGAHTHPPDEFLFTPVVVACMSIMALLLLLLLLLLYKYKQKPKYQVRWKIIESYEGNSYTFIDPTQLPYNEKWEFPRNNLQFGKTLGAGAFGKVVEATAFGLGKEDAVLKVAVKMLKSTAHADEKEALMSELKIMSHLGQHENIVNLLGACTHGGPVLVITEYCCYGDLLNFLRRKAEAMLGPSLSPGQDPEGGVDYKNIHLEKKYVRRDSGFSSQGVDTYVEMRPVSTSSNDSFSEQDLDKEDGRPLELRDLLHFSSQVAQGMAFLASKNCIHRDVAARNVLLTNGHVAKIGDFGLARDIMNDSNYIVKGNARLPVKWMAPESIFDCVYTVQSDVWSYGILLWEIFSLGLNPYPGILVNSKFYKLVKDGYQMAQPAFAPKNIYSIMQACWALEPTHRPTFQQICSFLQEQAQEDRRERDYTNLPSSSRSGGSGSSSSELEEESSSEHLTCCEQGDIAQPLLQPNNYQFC

Key:
Assay in all cases: number of time points (of 5) at which kinase-Nluc abundance scored as decreased, DMSO-normalised (count); higher = more persistent destabilization
[1] = compound: O=C(Nc1cccc(Cl)c1)Nc1ncc(CCNc2ncnc3ccsc23)s1 [SNS-314 (mesylate)]; conditions: 10 µM; K562; 2-18 h
[2] = compound: O=C(Nc1cccc(Nc2nccc(Nc3cccc(C(F)(F)F)c3)n2)c1)C1CC1 [Aurora kinase inhibitor-3]; conditions: 2.5 µM; K562; 2-18 h
[3] = compound: O=C(O)c1ccc(Nc2ncc3c(n2)-c2ccc(Cl)cc2C(c2c(F)cccc2F)=NC3)cc1; conditions: 10 µM; K562; 2-18 h
[4] = compound: O=C(c1ccc(/C=C/c2n[nH]c3ccccc23)cc1)N1CCNCC1; conditions: 2.5 µM; K562; 2-18 h
[5] = compound: O=C1Cc2c([nH]c3ccc(Br)cc23)-c2ccccc2N1 [Kenpaullone]; conditions: 10 µM; K562; 2-18 h
[6] = compound: O=C1NCCc2[nH]c(-c3ccncc3)cc21; conditions: 2.5 µM; K562; 2-18 h
[7] = compound: O=S(=O)(c1cccc2c(O)nccc12)N1CCCNCC1 [Hydroxyfasudil (hydrochloride)]; conditions: 10 µM; K562; 2-18 h

Measured: number of time points

PTK2B (UniProt Q14289)
0: all assays above

PIK4CA (UniProt P42356)
0: all assays above

AURKB (UniProt Q96GD4)
2: [1]
0: all other assays above

JAK1 (UniProt P23458)
1: [2]
0: all other assays above

MAPK4 (UniProt P31152)
0: all assays above

RAF1_S257L (clone: RAF1_mut) (UniProt P04049)
4: [1]
0: all other assays above

LYN (UniProt P07948)
0: all assays above

CDK6 (UniProt Q00534)
0: all assays above

CHEK2 (UniProt O96017)
0: all assays above

MAP2K1 (UniProt Q02750)
0: all assays above

YES1 (UniProt P07947)
0: all assays above

ULK3 (UniProt Q6PHR2)
1: [1]
0: all other assays above

RIPK1 (UniProt Q13546)
0: all assays above

LIMK1 (UniProt P53667)
0: all assays above

PDK1 (UniProt Q15118)
0: all assays above

MKNK1 (UniProt Q9BUB5)
1: [1]
0: all other assays above

CDK10 (UniProt Q15131)
0: all assays above

FYN (UniProt P06241)
0: all assays above

RET (UniProt P07949)
0: all assays above

CSK (UniProt P41240)
0: all assays above

RPS6KA1 (UniProt Q15418)
not listed: [3]
0: all other assays above

BLK (UniProt P51451)
0: [2] | [3] | [4] | [7]

CSNK1A1 (UniProt P48729)
4: [5]
not listed: [6]
0: all other assays above

EGFR_T790M (UniProt P00533)
0: [2] | [3]

AURKA (UniProt O14965)
not listed: [1] | [2]
0: all other assays above

DDR1 (UniProt Q08345)
not listed: [3]
0: all other assays above

BTK (UniProt Q06187)
not listed: [6]
0: all other assays above

ARAF (UniProt P10398)
0: all assays above

LCK (UniProt P06239)
0: [3] | [4]

PDGFRB (UniProt P09619)
not listed: [1] | [6]
0: all other assays above

SYK (UniProt P43405)
not listed: [6]
0: all other assays above

EGFR_L718V (UniProt P00533)
0: [2] | [3]

BRAF (UniProt P15056)
not listed: [1] | [7]
0: all other assays above

EGFR (UniProt P00533)
0: [2] | [3]

CDK2 (UniProt P24941)
not listed: [4]
0: all other assays above

ERN1 (UniProt O75460)
0: all assays above

EGFR_G719S (UniProt P00533)
0: [2] | [3]

ZAP70 (UniProt P43403)
0: all assays above

NTRK3 (UniProt Q16288)
not listed: [4]
0: all other assays above

TYK2 (UniProt P29597)
not listed: [5]
0: all other assays above

BMX (UniProt P51813)
1: [1]
0: [2] | [5] | [6] | [7]

LIMK2 (UniProt P53671)
0: all assays above

EGFR_G719S_T790M (UniProt P00533)
0: [2] | [3]

CSF1R (UniProt P07333)
not listed: [1]
0: all other assays above

SRC (UniProt P12931)
not listed: [3] | [4]
0: all other assays above

ALK (UniProt Q9UM73)
1: [1]
0: all other assays above

EPHA2 (UniProt P29317)
not listed: [3]
0: all other assays above

EGFR_L858R (UniProt P00533)
0: [2] | [3]

HER2 (UniProt P04626)
not listed: [3]
0: all other assays above

ABL1 (UniProt P00519)
not listed: [3] | [7]
0: all other assays above

EGFR_L861Q (UniProt P00533)
0: [2] | [3]

FGFR3 (UniProt P22607)
0: all assays above
